Measured values from US20030212084A1, “Naphthrydine compounds and their azaisosteric analogues as antibacterials” (priority 1998, published 2003).
Some of these results come from one statement about several compounds together. For at least one compound, name, drawing or mass did not settle the structure.

Test system: some of these organisms
Experiment: MIC against various organisms (unspecified subset)
Type: cell-based
Conditions: against some of these organisms (those of the table)
Method: The MIC (μg/ml) of compounds 1 and 2 against various organisms was determined.

C=C[C@H]1CN(CCCCCCC)CC[C@H]1CC(=O)Nc1ccnc2ccc(OC)nc12 [Example 4, [3R, 4S]-1-Heptyl-3-ethenyl-4-N-(6-methoxy-1,5-naphthyridin-4-yl)-piperidineacetamide]
MIC values: less than or equal to 1 μg/ml
